# Laboratory results published in paper PMC4955146, “Virtual screening and experimental validation of novel histone deacetylase inhibitors” (BMC Pharmacology & Toxicology, 2016).
# Assays:
# [1] = tested on: MCF-10A cells; assay: MTT cell viability assay, MCF-10A; type: cell-based; conditions: Homo sapiens, 48 h of treatment, 3 % serum
# [2] = tested on: L02 cells; assay: MTT cell viability assay, L02; type: cell-based; conditions: Homo sapiens, 48 h of treatment, 3 % serum
structure (smiles),measurement,setting,value
"O=C(CCCCCCC(=O)Nc1ccccc1)NO [SAHA, Suberoylanilide hydroxamic acid]",IC50,[1],59 ± 10 µM
same,IC50,[2],85 ± 2 µM
